This list was built around the results that the source calls inconclusive (neither active nor inactive); the mix of calls is not that of the screen. Potencies of inconclusive entries are doubtful fits and often do not repeat. The source made the active and inactive calls. The call rests on the fitted dose curve; in most records, active means well fitted activation curve with a large enough effect; inconclusive means small, poorly fitted or top-dose-only effect, or another doubt; inactive means no such curve, though single readings can be large or run the other way.
biological target: Rap guanine nucleotide exchange factor 3 (Homo sapiens) (UniProt O95398); test: Counterscreen qHTS for agonist of cAMP-regulated guanine nucleotide exchange factor 3 (EPAC1) (AID 1645889); settings: EPAC1 Rap1B-BODIPY-GDP exchange, fluorescence; activation: at 154 µM (top of the series) unless noted; further: nearly all actives have a fitted effect of over 40% in size; on activation: % of control where 0% means no effect
How it was run: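 Measured: fluorescence of BODIPY-GDP bound to Rap1B, which falls as exchange proceeds. Conditions include 50 uM competing GDP, 5 and 30 min reads, and a later cAMP challenge for antagonist detection.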
Potency means the concentration at half of the fitted maximal effect.

| SMILES | activation | Potency |
| --- | --- | --- |
| CCOC(=O)c1ccc(N2C(=O)c3[nH]nc(-c4ccc(OCC)cc4)c3C2c2cccs2)cc1 (stereo not given) | inactive: -5% |  |
| CC(/C=C1\SC(=S)N(NS(=O)(=O)c2ccccc2)C1=O)=C\c1ccccc1 | inactive: 7.68% [at 30.8 µM] |  |
| O=C(Cc1c(Sc2ccccc2)c2ccccc2n1Cc1ccccc1)NCCO |  | inconclusive: 8.91 µM [activator, partial curve, poor fit] |
| CCOC(=O)c1c(NC(=O)C2C3C=CC(C3)C2C(=O)O)sc2c1CCC(CC)C2 (stereo not given) | inactive: 6.05% |  |
| C[C@H]1CN([C@@H](C)CO)S(=O)(=O)c2ccc(Br)cc2O[C@@H]1CN(C)Cc1ccccc1 | inactive: -11.6% |  |
| CCOC(=O)c1ccc(NC(=O)c2c(N)n(Cc3ccccc3)c(=O)[nH]c2=O)cc1 | inconclusive: 47.8% [activator] |  |
| COc1ccc(OC)c(NC(=O)C(C)Oc2ccc(Br)cc2)c1 (stereo not given) |  | inconclusive: 0.0089 µM [activator, full curve, poor fit] |
| Cc1ccc(C)c(Cn2nc(-c3ccccc3)ccc2=O)c1 | inactive: 3.62% [at 30.8 µM] |  |
| CCCCOC(=O)Nc1ccc(S(=O)(=O)Nc2nccs2)cc1 | inconclusive: 22.7% [activator] |  |
| Cc1cc(C)c(Cn2cnc3ccccc32)c(C)c1 | inconclusive: 27.9% [activator] |  |

Exported with bars between the fields: entries from further up
SMILES | activation | Potency
CC(/C=C1\SC(=S)N(NS(=O)(=O)c2ccccc2)C1=O)=C\c1ccccc1 | inactive: 7.68% [at 30.8 µM] | 
O=C(Cc1c(Sc2ccccc2)c2ccccc2n1Cc1ccccc1)NCCO |  | inconclusive: 8.91 µM [activator, partial curve, poor fit]
